Experimental findings from patent US20130267422A1, “COMPOSITION FOR CONTROLLING PLANT DISEASES COMPRISING 3-PENTANOL AS EFFECTIVE COMPONENT” (Korea Research Institute Of Bioscience And Biotechnology, priority 2010, published 2013) are described below.

The test system of the data set is pepper. Nature of the data set: Growth and yield of pepper under field conditions. It counts as in vivo. The following applies: harvest period.

SMILES strings stand for the structures.

In the case of `CCC(O)CC` [3-pentanol], under “versus 0.5 mM BTH”, the “yield compared with BTH” value is given as “higher than that of BTH”. Where the note is “versus control group”, the plant growth result is “no difference” and the yield result is “lower than the control group”.
